# These are yes or no findings as the source states them, for the method shown. Some entries that bind do so weakly or less than the wild type.
# Chains of the proteins cited; added tags and fusions are not shown. Lines headed by an entry give the natural chain unless they say otherwise; changes in a name come on top.
# UniProt Q03131: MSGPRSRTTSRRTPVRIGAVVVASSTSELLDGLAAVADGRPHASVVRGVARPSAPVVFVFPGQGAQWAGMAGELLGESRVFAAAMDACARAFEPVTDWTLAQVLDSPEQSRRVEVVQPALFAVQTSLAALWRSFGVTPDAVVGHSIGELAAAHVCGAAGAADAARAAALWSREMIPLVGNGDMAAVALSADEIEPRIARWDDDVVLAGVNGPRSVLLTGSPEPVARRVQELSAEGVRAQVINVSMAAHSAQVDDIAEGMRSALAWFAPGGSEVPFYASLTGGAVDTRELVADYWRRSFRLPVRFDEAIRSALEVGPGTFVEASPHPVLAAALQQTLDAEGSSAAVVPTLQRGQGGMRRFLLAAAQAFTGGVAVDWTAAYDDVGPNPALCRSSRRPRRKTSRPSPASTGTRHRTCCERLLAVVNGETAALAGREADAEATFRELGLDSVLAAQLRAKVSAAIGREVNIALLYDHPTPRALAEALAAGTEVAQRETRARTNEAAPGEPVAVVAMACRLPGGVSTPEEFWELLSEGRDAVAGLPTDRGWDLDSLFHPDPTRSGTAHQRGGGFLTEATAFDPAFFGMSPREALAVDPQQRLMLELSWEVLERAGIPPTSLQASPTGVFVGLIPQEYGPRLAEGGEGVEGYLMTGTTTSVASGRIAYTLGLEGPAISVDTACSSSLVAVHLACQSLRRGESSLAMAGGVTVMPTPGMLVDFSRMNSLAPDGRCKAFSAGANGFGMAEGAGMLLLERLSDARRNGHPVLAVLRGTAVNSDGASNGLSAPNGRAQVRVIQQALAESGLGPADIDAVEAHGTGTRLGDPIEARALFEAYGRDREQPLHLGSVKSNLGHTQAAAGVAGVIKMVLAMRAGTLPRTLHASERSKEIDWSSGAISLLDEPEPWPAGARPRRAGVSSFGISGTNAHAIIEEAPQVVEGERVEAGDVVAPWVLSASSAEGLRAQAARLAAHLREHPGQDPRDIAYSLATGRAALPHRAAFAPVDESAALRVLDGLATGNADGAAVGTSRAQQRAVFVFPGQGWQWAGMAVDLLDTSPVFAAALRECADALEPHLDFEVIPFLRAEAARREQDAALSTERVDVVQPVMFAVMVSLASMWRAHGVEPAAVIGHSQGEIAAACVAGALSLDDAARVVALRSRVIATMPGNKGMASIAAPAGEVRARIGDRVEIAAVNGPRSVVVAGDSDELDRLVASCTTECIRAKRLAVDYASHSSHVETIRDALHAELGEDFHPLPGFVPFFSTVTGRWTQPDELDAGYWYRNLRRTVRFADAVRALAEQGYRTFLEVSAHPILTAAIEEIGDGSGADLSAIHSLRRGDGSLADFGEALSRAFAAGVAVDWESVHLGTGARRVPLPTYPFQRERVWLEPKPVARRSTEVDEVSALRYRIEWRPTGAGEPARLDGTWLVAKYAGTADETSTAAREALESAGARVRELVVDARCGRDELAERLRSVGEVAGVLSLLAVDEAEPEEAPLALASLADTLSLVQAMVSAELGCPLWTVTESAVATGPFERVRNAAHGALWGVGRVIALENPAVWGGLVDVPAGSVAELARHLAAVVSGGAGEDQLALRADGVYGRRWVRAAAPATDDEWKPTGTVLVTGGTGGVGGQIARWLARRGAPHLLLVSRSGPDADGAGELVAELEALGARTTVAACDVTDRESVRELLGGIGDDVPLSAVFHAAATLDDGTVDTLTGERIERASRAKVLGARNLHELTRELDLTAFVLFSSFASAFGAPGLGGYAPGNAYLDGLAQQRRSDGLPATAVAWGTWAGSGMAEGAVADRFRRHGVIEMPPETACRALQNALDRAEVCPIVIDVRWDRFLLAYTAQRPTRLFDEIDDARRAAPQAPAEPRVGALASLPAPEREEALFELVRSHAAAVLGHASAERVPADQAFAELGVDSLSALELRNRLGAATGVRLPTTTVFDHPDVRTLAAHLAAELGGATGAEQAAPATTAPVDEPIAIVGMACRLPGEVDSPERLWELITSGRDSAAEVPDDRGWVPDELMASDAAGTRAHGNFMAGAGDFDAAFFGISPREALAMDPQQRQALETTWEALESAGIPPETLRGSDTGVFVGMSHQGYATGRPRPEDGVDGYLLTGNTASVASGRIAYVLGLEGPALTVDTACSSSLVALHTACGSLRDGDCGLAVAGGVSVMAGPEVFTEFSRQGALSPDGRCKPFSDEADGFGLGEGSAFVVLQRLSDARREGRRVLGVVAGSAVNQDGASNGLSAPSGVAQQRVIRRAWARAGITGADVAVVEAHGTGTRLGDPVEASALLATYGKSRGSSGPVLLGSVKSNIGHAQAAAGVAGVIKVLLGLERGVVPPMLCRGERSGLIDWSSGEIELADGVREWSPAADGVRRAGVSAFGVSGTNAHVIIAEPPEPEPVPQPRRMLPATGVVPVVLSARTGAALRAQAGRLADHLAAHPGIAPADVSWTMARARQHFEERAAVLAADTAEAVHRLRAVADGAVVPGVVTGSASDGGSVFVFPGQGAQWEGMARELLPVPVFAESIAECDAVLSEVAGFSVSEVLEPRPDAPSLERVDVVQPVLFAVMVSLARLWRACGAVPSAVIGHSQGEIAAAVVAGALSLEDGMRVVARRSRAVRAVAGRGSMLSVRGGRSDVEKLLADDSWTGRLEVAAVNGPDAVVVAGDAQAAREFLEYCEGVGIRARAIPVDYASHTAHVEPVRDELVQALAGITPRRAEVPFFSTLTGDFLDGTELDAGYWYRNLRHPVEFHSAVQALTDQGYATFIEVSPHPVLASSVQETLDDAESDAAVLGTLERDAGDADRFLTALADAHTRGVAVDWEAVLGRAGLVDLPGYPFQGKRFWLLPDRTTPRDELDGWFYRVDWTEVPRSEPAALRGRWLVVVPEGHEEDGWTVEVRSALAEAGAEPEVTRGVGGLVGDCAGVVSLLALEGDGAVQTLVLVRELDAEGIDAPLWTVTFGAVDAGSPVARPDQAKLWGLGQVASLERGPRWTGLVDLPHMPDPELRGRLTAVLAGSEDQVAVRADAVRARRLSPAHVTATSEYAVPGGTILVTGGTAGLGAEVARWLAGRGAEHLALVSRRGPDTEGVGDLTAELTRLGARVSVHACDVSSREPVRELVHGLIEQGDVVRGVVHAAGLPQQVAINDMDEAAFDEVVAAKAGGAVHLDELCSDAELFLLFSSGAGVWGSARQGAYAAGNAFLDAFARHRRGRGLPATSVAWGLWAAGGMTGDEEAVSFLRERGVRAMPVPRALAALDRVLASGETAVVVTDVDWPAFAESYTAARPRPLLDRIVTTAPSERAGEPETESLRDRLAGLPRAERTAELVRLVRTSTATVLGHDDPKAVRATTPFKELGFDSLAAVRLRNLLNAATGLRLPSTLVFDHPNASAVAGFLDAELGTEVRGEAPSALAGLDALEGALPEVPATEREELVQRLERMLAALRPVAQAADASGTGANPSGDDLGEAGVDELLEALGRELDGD
# B1: M3 N-term (synthetic peptide, N-terminal linker of module 3) (peptide)
# peptide: MTDSEKVAEYLRRATLDLRAARQRIRELESD
# modifications: C-terminal amide
# Target: M2 (module 2 of DEBS with its natural C-terminal linker) (UniProt Q03131)
# Assay: inferred from selective inhibition of tetraketide production (M2 with M3+TE inhibited, M2(4) with (5)M3+TE not)
binder,measurement,value
B1,binding,binds

# — US20060110789A1, “Methods to mediate polyketide synthase module effectiveness” (priority 2002, published 2006)
